Results taken from patent US20170335004A1.
Results are given in words; binding and its absence hold for the method and conditions named. Some entries that bind do so weakly or less than the wild type. Where a sequence is shown, tags or fusion partners need not be part of it.

Target: T1, Recombinant human Fn14 R58A mutant (extracellular domain, His-tagged) (human) (UniProt Q9NP84)
T1 sequence: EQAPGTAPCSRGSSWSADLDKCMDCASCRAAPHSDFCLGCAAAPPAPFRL
Assay: ELISA on coated R58A mutant, antibody 0.5-0.008 µg/ml

B1: human antibody 3.6 (antibody, V domains shown)
VH: QVQLVQSGGGLVKPGGSLRLSCAASGFTFTSYAMSWVRQAPGKGLEWVSAISGSGGSTYYADSVKGRFTISRDNPKNTLYLQMNSLRAEDTAVYYCARVRANYYYGMDVWGQGTLVTVSS
VL: LTQSPGTLSLSPGERATLSCRASQSVSRLTWYQQKPGQAPRLLIYGTSSRATGIPNRFSGSGSGTDFTLTITRLEPEDFAVYYCQQFRNSLLTFGGGTKVEITR
- binding: binds
